Laboratory results: PubChem BioAssay AID1224830 (NIAID, 2016)
Here is an unselected part of about 18,000 reagents. Over the whole deposit, about 2,900 (16%) were called active. 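Calls are made per well; low scores hint the gene aids the LPS response, high scores that it dampens it.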 Repeated entries: four replicate wells of each siRNA pool.

Test: 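Genes whose knock-down alters the TNF-alpha reporter response to LPS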 (primary screen)
System: human THP-1 monocytic leukaemia cells, TNF dual-luciferase reporter clone, PMA-differentiated to macrophage-like cells
Reagents: siRNA pool against human genes, 50 nM
Time to read-out: LPS for 4 h, given about 3 days after siRNA transfection
Conditions: bacterial LPS (TLR4 ligand), 10 ng/ml
Measured: 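Ratio of firefly to renilla light, scaled to the plate median and expressed as a robust z-score per replicate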
Direction: TNF reporter robust z-score: higher = stronger TNF reporter response to LPS
Rule for the call: 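Each well counts as active if its z-score is over 2.8 or under -1.5; controls are left without a call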

Target gene	TNF reporter robust z-score	activity call
PAEP (progestagen associated endometrial protein)	0.41	inactive
PAEP (progestagen associated endometrial protein)	-0.17	inactive
PAEP (progestagen associated endometrial protein)	1.51	inactive
PAEP (progestagen associated endometrial protein)	-0.49	inactive
TP53BP1 (tumor protein p53 binding protein 1)	0.82	inactive
TP53BP1 (tumor protein p53 binding protein 1)	0.07	inactive
TP53BP1 (tumor protein p53 binding protein 1)	-0.98	inactive
TP53BP1 (tumor protein p53 binding protein 1)	1.33	inactive
THYN1 (thymocyte nuclear protein 1)	-1.46	inactive
THYN1 (thymocyte nuclear protein 1)	0.88	inactive
THYN1 (thymocyte nuclear protein 1)	-0.86	inactive
THYN1 (thymocyte nuclear protein 1)	0.23	inactive
PSMD5 (proteasome 26S subunit, non-ATPase 5)	0.89	inactive
PSMD5 (proteasome 26S subunit, non-ATPase 5)	2.44	inactive
PSMD5 (proteasome 26S subunit, non-ATPase 5)	1.22	inactive
PSMD5 (proteasome 26S subunit, non-ATPase 5)	1.15	inactive
SLC67A2	2.8	active
SLC67A2	1.98	inactive
SLC67A2	-0.43	inactive
SLC67A2	0.45	inactive
PRAMEF1 (PRAME family member 1)	-0.86	inactive
PRAMEF1 (PRAME family member 1)	-0.44	inactive
PRAMEF1 (PRAME family member 1)	-1.14	inactive
PRAMEF1 (PRAME family member 1)	0.29	inactive
KDM2B (lysine demethylase 2B)	0.94	inactive
KDM2B (lysine demethylase 2B)	0.66	inactive
KDM2B (lysine demethylase 2B)	-1.28	inactive
KDM2B (lysine demethylase 2B)	-0.54	inactive
PLA2G6 (phospholipase A2 group VI)	-0.83	inactive
PLA2G6 (phospholipase A2 group VI)	-1.29	inactive
PLA2G6 (phospholipase A2 group VI)	-0.73	inactive
PLA2G6 (phospholipase A2 group VI)	-0.74	inactive
FLNB (filamin B)	-0.09	inactive
FLNB (filamin B)	0.68	inactive
FLNB (filamin B)	0.62	inactive
FLNB (filamin B)	0.39	inactive
RRN3 (RNA polymerase I transcription factor RRN3)	1.33	inactive
RRN3 (RNA polymerase I transcription factor RRN3)	0.73	inactive
RRN3 (RNA polymerase I transcription factor RRN3)	1.12	inactive
RRN3 (RNA polymerase I transcription factor RRN3)	1.01	inactive
BRDT (bromodomain testis associated)	0.5	inactive
BRDT (bromodomain testis associated)	0.87	inactive
BRDT (bromodomain testis associated)	3.45	active
BRDT (bromodomain testis associated)	2.52	inactive
MAOA (monoamine oxidase A)	0.74	inactive
MAOA (monoamine oxidase A)	-0.9	inactive
MAOA (monoamine oxidase A)	-0.84	inactive
MAOA (monoamine oxidase A)	-0.47	inactive

Reagents listed so far called active, once more:
Target gene	TNF reporter robust z-score	activity call
SLC67A2	2.8	active
BRDT (bromodomain testis associated)	3.45	active
